Consider 29 targets from the supplement of paper PMC12819154, “High-throughput peptide-centric local stability assay extends protein–ligand identification to membrane proteins, tissues and bacteria” (Nature Structural & Molecular Biology, 2025).

Sequences of proteins named here, by UniProt entry; tags and fusion partners are left off. A change or cut given only in a name is not applied to a line headed by its entry.
UniProt Q99471, whole entry: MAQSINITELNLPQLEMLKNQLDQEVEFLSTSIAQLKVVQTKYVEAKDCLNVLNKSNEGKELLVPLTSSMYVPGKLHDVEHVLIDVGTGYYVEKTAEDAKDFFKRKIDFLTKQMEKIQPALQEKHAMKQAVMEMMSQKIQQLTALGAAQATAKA
UniProt Q96NC0: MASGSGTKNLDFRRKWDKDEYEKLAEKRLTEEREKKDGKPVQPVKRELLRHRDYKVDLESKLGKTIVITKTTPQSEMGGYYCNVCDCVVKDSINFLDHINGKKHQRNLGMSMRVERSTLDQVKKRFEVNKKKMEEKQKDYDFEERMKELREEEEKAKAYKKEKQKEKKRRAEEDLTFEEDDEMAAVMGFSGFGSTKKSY
UniProt Q96IT1: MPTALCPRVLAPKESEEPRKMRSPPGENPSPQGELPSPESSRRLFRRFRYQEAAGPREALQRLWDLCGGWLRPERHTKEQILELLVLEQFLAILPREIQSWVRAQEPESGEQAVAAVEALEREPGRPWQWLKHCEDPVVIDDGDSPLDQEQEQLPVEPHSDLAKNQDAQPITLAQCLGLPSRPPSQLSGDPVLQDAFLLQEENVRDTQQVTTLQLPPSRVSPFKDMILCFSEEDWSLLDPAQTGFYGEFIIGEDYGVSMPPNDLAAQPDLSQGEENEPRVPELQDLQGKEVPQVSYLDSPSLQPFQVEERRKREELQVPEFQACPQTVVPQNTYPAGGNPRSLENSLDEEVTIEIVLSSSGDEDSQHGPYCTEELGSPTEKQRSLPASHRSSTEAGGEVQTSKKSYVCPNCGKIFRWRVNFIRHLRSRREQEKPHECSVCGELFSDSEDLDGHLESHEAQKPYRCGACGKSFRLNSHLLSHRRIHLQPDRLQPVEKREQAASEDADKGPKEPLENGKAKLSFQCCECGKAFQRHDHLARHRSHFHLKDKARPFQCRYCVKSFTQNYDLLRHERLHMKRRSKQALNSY
UniProt Q96JH8: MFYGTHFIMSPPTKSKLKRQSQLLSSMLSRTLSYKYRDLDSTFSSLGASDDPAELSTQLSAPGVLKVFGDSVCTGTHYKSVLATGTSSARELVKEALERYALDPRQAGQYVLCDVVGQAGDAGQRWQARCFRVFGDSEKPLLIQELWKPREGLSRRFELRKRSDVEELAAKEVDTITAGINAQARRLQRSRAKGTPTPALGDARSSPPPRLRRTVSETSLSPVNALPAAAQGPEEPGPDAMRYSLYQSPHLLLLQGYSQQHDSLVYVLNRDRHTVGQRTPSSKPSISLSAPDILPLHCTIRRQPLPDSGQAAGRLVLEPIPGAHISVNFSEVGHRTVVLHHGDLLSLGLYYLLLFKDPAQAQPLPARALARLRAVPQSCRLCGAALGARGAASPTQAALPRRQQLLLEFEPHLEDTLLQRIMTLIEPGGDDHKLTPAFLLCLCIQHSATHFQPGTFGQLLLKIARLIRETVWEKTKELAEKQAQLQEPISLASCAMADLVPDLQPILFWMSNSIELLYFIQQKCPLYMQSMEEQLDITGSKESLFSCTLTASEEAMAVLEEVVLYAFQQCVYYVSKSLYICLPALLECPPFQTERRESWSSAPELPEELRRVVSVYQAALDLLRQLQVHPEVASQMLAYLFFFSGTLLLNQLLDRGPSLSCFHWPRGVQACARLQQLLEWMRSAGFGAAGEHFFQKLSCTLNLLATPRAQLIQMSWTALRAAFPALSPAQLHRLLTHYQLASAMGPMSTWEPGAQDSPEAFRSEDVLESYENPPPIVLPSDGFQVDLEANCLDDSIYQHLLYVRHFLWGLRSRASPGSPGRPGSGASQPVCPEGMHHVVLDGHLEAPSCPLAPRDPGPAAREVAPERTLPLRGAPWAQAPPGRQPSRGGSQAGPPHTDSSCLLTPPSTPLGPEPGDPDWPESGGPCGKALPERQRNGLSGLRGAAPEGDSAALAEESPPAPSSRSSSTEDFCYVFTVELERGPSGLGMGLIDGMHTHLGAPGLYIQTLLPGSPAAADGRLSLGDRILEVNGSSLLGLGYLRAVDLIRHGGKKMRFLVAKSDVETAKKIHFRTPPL
UniProt Q96RU7: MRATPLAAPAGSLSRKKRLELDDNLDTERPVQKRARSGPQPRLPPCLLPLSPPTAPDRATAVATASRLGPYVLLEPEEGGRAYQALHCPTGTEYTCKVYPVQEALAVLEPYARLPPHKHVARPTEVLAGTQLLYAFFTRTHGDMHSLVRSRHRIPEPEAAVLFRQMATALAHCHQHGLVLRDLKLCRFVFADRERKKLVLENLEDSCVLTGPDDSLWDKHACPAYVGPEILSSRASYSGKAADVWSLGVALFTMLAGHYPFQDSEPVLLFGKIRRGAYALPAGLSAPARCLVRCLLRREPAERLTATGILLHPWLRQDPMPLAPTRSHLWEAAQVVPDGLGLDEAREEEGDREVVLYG
UniProt Q99417: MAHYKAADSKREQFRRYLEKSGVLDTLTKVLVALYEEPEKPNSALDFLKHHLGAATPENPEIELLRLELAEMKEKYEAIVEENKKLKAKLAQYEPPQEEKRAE
UniProt Q96HQ0: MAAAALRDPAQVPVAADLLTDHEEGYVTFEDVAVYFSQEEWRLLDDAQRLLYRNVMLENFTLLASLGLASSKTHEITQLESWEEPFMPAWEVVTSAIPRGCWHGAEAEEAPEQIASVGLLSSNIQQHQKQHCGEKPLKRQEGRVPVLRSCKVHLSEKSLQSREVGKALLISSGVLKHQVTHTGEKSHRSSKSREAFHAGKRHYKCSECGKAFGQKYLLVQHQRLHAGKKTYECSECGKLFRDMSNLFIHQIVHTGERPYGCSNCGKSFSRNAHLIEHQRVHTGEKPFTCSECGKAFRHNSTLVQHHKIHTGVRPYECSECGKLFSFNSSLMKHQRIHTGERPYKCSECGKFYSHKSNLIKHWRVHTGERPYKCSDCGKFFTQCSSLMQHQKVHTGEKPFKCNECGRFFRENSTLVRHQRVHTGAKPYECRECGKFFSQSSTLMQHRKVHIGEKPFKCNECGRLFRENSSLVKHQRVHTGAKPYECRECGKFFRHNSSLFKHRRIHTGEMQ
UniProt Q96PZ0: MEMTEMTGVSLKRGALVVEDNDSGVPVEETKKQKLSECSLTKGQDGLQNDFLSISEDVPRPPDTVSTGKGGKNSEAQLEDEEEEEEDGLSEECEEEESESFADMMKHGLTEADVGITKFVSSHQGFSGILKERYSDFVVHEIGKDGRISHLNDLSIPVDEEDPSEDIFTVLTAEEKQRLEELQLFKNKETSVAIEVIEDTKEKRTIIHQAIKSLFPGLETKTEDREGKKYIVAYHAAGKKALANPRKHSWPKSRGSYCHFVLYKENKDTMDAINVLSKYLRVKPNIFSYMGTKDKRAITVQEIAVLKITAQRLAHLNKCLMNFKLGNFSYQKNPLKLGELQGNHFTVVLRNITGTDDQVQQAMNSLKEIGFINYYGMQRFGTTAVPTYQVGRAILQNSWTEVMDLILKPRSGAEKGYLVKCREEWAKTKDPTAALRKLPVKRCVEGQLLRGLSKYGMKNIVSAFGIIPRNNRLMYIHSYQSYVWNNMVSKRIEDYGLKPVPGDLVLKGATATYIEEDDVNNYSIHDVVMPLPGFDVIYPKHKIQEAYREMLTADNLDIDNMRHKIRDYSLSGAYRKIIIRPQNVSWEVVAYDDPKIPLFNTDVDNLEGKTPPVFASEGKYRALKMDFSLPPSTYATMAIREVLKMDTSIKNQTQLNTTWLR
UniProt Q96RK0: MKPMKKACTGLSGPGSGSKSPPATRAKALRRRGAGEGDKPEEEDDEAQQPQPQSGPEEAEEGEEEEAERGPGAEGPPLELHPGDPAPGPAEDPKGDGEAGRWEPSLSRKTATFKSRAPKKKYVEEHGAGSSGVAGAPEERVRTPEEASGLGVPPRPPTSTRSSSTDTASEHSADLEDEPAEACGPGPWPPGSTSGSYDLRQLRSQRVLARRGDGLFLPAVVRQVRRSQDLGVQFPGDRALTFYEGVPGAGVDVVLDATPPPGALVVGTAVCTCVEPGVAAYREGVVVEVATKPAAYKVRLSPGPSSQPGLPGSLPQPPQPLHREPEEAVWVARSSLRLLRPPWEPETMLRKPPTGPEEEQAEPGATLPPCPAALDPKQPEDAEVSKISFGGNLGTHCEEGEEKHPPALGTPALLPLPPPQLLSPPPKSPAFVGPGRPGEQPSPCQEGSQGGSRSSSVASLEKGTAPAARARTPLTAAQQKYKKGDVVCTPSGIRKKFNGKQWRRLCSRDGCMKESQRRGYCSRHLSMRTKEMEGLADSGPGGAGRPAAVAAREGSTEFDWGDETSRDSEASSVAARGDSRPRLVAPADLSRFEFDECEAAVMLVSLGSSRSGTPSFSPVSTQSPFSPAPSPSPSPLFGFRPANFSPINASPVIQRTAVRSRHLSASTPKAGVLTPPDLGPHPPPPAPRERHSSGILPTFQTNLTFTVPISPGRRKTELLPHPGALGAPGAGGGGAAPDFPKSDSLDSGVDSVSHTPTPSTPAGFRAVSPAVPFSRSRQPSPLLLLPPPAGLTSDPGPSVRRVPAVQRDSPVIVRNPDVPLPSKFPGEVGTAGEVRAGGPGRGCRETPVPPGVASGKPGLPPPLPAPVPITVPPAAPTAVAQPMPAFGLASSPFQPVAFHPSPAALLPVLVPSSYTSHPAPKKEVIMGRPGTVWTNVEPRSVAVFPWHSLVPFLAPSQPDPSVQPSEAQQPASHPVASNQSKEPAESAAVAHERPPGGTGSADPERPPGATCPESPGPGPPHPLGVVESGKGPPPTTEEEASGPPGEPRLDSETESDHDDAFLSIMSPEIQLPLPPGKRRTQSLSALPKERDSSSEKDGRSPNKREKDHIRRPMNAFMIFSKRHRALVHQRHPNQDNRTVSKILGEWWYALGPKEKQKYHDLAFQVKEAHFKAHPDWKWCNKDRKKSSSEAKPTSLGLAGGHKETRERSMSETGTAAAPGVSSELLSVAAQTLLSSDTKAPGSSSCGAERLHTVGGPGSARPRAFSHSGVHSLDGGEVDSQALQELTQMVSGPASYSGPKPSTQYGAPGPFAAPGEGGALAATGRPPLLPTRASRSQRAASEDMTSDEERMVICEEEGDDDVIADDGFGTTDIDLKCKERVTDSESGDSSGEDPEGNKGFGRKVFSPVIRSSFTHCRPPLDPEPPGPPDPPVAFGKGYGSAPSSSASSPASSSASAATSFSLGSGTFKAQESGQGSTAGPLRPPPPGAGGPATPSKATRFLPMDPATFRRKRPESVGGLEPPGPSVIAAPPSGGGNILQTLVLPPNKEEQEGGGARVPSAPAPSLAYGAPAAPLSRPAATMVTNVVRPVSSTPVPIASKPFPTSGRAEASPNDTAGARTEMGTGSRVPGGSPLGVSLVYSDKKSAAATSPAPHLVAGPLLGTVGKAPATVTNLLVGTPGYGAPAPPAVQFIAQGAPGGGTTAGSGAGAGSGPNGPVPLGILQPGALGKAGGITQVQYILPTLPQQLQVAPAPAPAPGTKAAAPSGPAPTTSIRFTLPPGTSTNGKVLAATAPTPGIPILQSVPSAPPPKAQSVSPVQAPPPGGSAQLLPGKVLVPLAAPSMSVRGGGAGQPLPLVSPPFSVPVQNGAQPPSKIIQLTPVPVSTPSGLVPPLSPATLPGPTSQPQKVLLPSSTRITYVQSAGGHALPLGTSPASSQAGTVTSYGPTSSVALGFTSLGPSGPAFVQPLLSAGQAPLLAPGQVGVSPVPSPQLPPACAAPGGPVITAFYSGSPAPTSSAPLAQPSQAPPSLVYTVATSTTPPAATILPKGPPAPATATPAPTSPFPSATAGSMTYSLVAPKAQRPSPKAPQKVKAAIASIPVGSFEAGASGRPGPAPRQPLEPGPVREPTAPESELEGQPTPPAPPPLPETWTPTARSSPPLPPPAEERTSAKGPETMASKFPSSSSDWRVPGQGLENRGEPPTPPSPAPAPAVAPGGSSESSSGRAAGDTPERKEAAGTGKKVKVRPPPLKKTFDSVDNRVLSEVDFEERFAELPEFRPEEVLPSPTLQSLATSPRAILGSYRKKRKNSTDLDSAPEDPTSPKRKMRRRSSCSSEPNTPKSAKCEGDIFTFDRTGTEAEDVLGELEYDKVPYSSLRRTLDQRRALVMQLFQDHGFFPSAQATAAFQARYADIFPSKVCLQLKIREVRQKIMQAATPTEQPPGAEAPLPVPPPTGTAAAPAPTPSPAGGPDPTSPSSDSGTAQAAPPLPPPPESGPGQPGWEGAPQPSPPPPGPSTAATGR
UniProt Q96HQ2: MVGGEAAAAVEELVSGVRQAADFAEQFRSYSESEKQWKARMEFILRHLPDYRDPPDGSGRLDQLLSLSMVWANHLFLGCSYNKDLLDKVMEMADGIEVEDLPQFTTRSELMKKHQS
UniProt Q99439: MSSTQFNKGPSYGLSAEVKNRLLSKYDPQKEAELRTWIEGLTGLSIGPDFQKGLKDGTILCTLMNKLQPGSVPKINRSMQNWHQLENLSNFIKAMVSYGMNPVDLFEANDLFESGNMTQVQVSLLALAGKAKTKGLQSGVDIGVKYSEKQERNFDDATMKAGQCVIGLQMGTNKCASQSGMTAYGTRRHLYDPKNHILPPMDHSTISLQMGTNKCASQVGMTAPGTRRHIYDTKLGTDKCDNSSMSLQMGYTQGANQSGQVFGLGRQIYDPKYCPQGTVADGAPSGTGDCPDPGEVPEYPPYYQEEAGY

The list shows a part of the results. Most values lie at the level of the controls, where differences are scatter.

Compound in the experiment: CN[C@@H]1C[C@H]2O[C@@](C)([C@@H]1OC)n1c3ccccc3c3c4c(c5c6ccccc6n2c5c31)C(=O)NC4 [staurosporine]
Description: log2 fold change of tryptic peptide abundance, ligand vs vehicle (limited proteolysis) (log2 ratio); higher = more trypsin-susceptible (destabilized). The note with it: ligand concentration: 20 uM; sample: K562 cleared lysate; digestion: 4 min, 22 C (HT-PELSA RT4min, Orbitrap Astral).
Consider “PFDN5 (peptide sequence: IQQLTALGAAQATAKA, peptide start residue: 139) (UniProt Q99471)”, for which the log2 fold change was -0.249.

With “FMC1 (peptide sequence: AALGSPSHTFR, peptide start residue: 2) (UniProt Q96HJ9)”, the log2 fold change amounted to 0.216.

Take “DNAJC1 (peptide sequence: ALPHLIQDAGQFYAK, peptide start residue: 237) (UniProt Q96KC8)”: the log2 fold change was determined as 0.662.

As to “ALS2 (peptide sequence: DSPEILSR, peptide start residue: 1334) (UniProt Q96Q42)”, the log2 fold change is -0.185.

On to “STRBP (peptide sequence: VILTSPLIRDELEKK, peptide start residue: 162) (UniProt Q96SI9)”, for which the log2 fold change came to 0.167.

On to “UniProt Q96NC0 (peptide sequence: DYDFEER, peptide start residue: 139)”, for which the log2 fold change was -0.126.

For “UniProt Q96IT1 (peptide sequence: LSFQCCECGK, peptide start residue: 520)”, the log2 fold change was 0.135.

As for “C9orf85 (peptide sequence: YKPLSKPK, peptide start residue: 61) (UniProt Q96MD7)”, the log2 fold change turned out to be 0.114.

Regarding “UniProt Q96JH8 (peptide sequence: SVLATGTSSAR, peptide start residue: 80)”, the log2 fold change is -0.243.

In the case of “TRIB3 (peptide sequence: RGAYALPAGLSAPAR, peptide start residue: 275) (UniProt Q96RU7)”, the log2 fold change is -0.324.

As to “RAB3IP (peptide sequence: TLVLSSSPTSPTQEPLPGGKTPFKK, peptide start residue: 257) (UniProt Q96QF0)”, the log2 fold change was found to be 0.323.

On to “MYCBP (peptide sequence: SGVLDTLTK, peptide start residue: 21) (UniProt Q99417)”, for which the log2 fold change was 0.129.

Take “CRBN (peptide sequence: CQIFPSKPVSR, peptide start residue: 205) (UniProt Q96SW2)”: the log2 fold change was found to be 0.0711.

“SCLT1 (peptide sequence: ISTMEHEFSIK, peptide start residue: 545) (UniProt Q96NL6)”: the log2 fold change is -0.332.

Turning to “UniProt Q96IX9 (peptide sequence: KHEDLQK, peptide start residue: 1410)”, the log2 fold change is 0.125.

As for “UniProt Q96HQ0 (peptide sequence: ALLISSGVLK, peptide start residue: 167)”, the log2 fold change was -0.526.

Take “TGS1 (peptide sequence: DFEVSMNTR, peptide start residue: 111) (UniProt Q96RS0)”: the log2 fold change is -0.319.

For “UniProt Q96MP5 (peptide sequence: VASPGGDTTGK, peptide start residue: 107)”, the log2 fold change was -0.36.

Turning to “RPS6KC1 (peptide sequence: RNPEDVQEIIVWK, peptide start residue: 40) (UniProt Q96S38)”, the log2 fold change was -0.459.

For the target “UniProt Q96NB1 (peptide sequence: STNIEDLHVSQAVNR, peptide start residue: 160)”, the log2 fold change is -0.126.

In the case of “PUS7 (peptide sequence: GYLVKCREEWAK, peptide start residue: 416) (UniProt Q96PZ0)”, the log2 fold change was -0.629.

Turning to “UniProt Q96RK0 (peptide sequence: VPGGSPLGVSLVYSDKK, peptide start residue: 717)”, the log2 fold change is -0.881.

Regarding “SNX27 (peptide sequence: EFANFTFPR, peptide start residue: 210) (UniProt Q96L92)”, the log2 fold change amounted to 0.242.

With “PHF12 (peptide sequence: FQDTVSQHVVK, peptide start residue: 341) (UniProt Q96QT6)”, the log2 fold change was -0.605.

In the case of “NEURL4 (peptide sequence: TALRPHATDDFNHGVVLSSR, peptide start residue: 539) (UniProt Q96JN8)”, the log2 fold change was -0.438.

Turning to “TTC14 (peptide sequence: KADLLFALSWK, peptide start residue: 71) (UniProt Q96N46)”, the log2 fold change was -0.565.

In the case of “CDKN2AIPNL (peptide sequence: VGGEAAAAVEELVSGVR, peptide start residue: 2) (UniProt Q96HQ2)”, the log2 fold change was -0.242.

With “SENP5 (peptide sequence: FCVENIR, peptide start residue: 671) (UniProt Q96HI0)”, the log2 fold change was 0.351.

Regarding “CNN2 (peptide sequence: YDPQKEAELR, peptide start residue: 26) (UniProt Q99439)”, the log2 fold change came to 0.279.
